{"source": "ChEMBL document CHEMBL4316593", "about": "(Eur J Med Chem, 2019)", "format_in_all_cases": "cell-based", "settings_in_all_cases": "U-87MG ATCC", "key": {"[1]": {"assay": "Inhibition of RTK/PI3K/AKT/mTOR signaling in human U87 cells assessed as down regulation of PRKAR2A gene expression at cytotoxic IC50 measured after 48 hrs relative to control"}, "[2]": {"assay": "Inhibition of RTK/PI3K/AKT/mTOR signaling in human U87 cells assessed as up regulation of chromosome 11 open reading frame 1 gene expression at cytotoxic IC50 measured after 48 hrs relative to control"}, "[3]": {"assay": "Inhibition of RTK/PI3K/AKT/mTOR signaling in human U87 cells assessed as down regulation of GNG5 gene expression at cytotoxic IC50 measured after 48 hrs relative to control"}, "[4]": {"assay": "Inhibition of RTK/PI3K/AKT/mTOR signaling in human U87 cells assessed as up regulation of TNF alpha induced protein 2 gene expression at cytotoxic IC50 measured after 48 hrs relative to control"}, "[5]": {"assay": "Inhibition of RTK/PI3K/AKT/mTOR signaling in human U87 cells assessed as up regulation of EIF3D gene expression at cytotoxic IC50 measured after 48 hrs relative to control"}, "[6]": {"assay": "Inhibition of RTK/PI3K/AKT/mTOR signaling in human U87 cells assessed as down regulation of PSMA3 gene expression at cytotoxic IC50 measured after 48 hrs relative to control"}, "[7]": {"assay": "Inhibition of RTK/PI3K/AKT/mTOR signaling in human U87 cells assessed as down regulation of RANGAP1 gene expression at cytotoxic IC50 measured after 48 hrs relative to control"}, "[8]": {"assay": "Inhibition of RTK/PI3K/AKT/mTOR signaling in human U87 cells assessed as down regulation of NFKBIE gene expression at cytotoxic IC50 measured after 48 hrs relative to control"}, "[9]": {"assay": "Inhibition of RTK/PI3K/AKT/mTOR signaling in human U87 cells assessed as up regulation of NKX1-2 gene expression at cytotoxic IC50 measured after 48 hrs relative to control"}, "[10]": {"assay": "Inhibition of RTK/PI3K/AKT/mTOR signaling in human U87 cells assessed as up regulation of roundabout guidance receptor 3 gene expression at cytotoxic IC50 measured after 48 hrs relative to control"}, "[11]": {"assay": "Inhibition of RTK/PI3K/AKT/mTOR signaling in human U87 cells assessed as down regulation of SLC37A1 gene expression at cytotoxic IC50 measured after 48 hrs relative to control"}, "[12]": {"assay": "Inhibition of RTK/PI3K/AKT/mTOR signaling in human U87 cells assessed as down regulation of HNRNPL gene expression at cytotoxic IC50 measured after 48 hrs relative to control"}, "[13]": {"assay": "Inhibition of RTK/PI3K/AKT/mTOR signaling in human U87 cells assessed as down regulation of E2F1 gene expression at cytotoxic IC50 measured after 48 hrs relative to control"}, "[14]": {"assay": "Inhibition of RTK/PI3K/AKT/mTOR signaling in human U87 cells assessed as down regulation of C12orf4 gene expression at cytotoxic IC50 measured after 48 hrs relative to control"}, "[15]": {"assay": "Inhibition of RTK/PI3K/AKT/mTOR signaling in human U87 cells assessed as down regulation of RRM1 gene expression at cytotoxic IC50 measured after 48 hrs relative to control"}, "[16]": {"assay": "Inhibition of RTK/PI3K/AKT/mTOR signaling in human U87 cells assessed as down regulation of DRAP1 gene expression at cytotoxic IC50 measured after 48 hrs relative to control"}, "[17]": {"assay": "Inhibition of RTK/PI3K/AKT/mTOR signaling in human U87 cells assessed as down regulation of GAN gene expression at cytotoxic IC50 measured after 48 hrs relative to control"}, "[18]": {"assay": "Inhibition of RTK/PI3K/AKT/mTOR signaling in human U87 cells assessed as up regulation of chromosome 19 open reading frame 48 gene expression at cytotoxic IC50 measured after 48 hrs relative to control"}, "[19]": {"assay": "Inhibition of RTK/PI3K/AKT/mTOR signaling in human U87 cells assessed as up regulation of KRT80 gene expression at cytotoxic IC50 measured after 48 hrs relative to control"}, "[20]": {"assay": "Inhibition of RTK/PI3K/AKT/mTOR signaling in human U87 cells assessed as up regulation of heparin binding growth factor gene expression at cytotoxic IC50 measured after 48 hrs relative to control"}, "[21]": {"assay": "Inhibition of RTK/PI3K/AKT/mTOR signaling in human U87 cells assessed as down regulation of ARHGAP31 gene expression at cytotoxic IC50 measured after 48 hrs relative to control"}, "[22]": {"assay": "Inhibition of RTK/PI3K/AKT/mTOR signaling in human U87 cells assessed as up regulation of adaptor related protein complex 1 sigma 1 subunit gene expression at cytotoxic IC50 measured after 48 hrs relative to control"}, "[23]": {"assay": "Inhibition of RTK/PI3K/AKT/mTOR signaling in human U87 cells assessed as down regulation of GCC1 gene expression at cytotoxic IC50 measured after 48 hrs relative to control"}, "[24]": {"assay": "Inhibition of RTK/PI3K/AKT/mTOR signaling in human U87 cells assessed as down regulation of JAK2 gene expression at cytotoxic IC50 measured after 48 hrs relative to control"}, "[25]": {"assay": "Inhibition of RTK/PI3K/AKT/mTOR signaling in human U87 cells assessed as down regulation of LRRFIP2 gene expression at cytotoxic IC50 measured after 48 hrs relative to control"}, "[26]": {"assay": "Inhibition of RTK/PI3K/AKT/mTOR signaling in human U87 cells assessed as down regulation of COPS8 gene expression at cytotoxic IC50 measured after 48 hrs relative to control"}, "[27]": {"assay": "Inhibition of RTK/PI3K/AKT/mTOR signaling in human U87 cells assessed as up regulation of apolipoprotein B mRNA editing enzyme catalytic subunit 3C gene expression at cytotoxic IC50 measured after 48 hrs relative to control"}, "[28]": {"assay": "Inhibition of RTK/PI3K/AKT/mTOR signaling in human U87 cells assessed as down regulation of CMC2 gene expression at cytotoxic IC50 measured after 48 hrs relative to control"}, "[29]": {"assay": "Inhibition of RTK/PI3K/AKT/mTOR signaling in human U87 cells assessed as down regulation of TSC22D2 gene expression at cytotoxic IC50 measured after 48 hrs relative to control"}, "[30]": {"assay": "Inhibition of RTK/PI3K/AKT/mTOR signaling in human U87 cells assessed as up regulation of RAB34, member RAS oncogene family gene expression at cytotoxic IC50 measured after 48 hrs relative to control"}, "[31]": {"assay": "Inhibition of RTK/PI3K/AKT/mTOR signaling in human U87 cells assessed as down regulation of ZNF266 gene expression at cytotoxic IC50 measured after 48 hrs relative to control"}, "[32]": {"assay": "Inhibition of RTK/PI3K/AKT/mTOR signaling in human U87 cells assessed as up regulation of TMEM145 gene expression at cytotoxic IC50 measured after 48 hrs relative to control"}}, "note": "Further values from the same series stand in other lists.", "data": [{"smiles": "CC(=O)C(=NNc1ccccc1C#N)C(C)=O", "values": [{"measurement": "log2FC", "setting": "[1]", "result": -0.519}, {"measurement": "log2FC", "setting": "[2]", "result": 1.07}, {"measurement": "log2FC", "setting": "[3]", "result": -0.537}, {"measurement": "log2FC", "setting": "[4]", "result": 1.21}, {"measurement": "log2FC", "setting": "[5]", "result": 0.457}, {"measurement": "log2FC", "setting": "[6]", "result": -0.584}, {"measurement": "log2FC", "setting": "[7]", "result": -0.954}, {"measurement": "log2FC", "setting": "[8]", "result": -1.07}, {"measurement": "log2FC", "setting": "[9]", "result": 1.67}, {"measurement": "log2FC", "setting": "[10]", "result": 0.911}, {"measurement": "log2FC", "setting": "[11]", "result": -0.907}, {"measurement": "log2FC", "setting": "[12]", "result": -0.627}, {"measurement": "log2FC", "setting": "[13]", "result": -1.62}, {"measurement": "log2FC", "setting": "[14]", "result": -0.982}, {"measurement": "log2FC", "setting": "[15]", "result": -0.564}, {"measurement": "log2FC", "setting": "[16]", "result": -0.816}, {"measurement": "log2FC", "setting": "[17]", "result": -1.35}, {"measurement": "log2FC", "setting": "[18]", "result": 0.704}, {"measurement": "log2FC", "setting": "[19]", "result": 3.39}, {"measurement": "log2FC", "setting": "[20]", "result": 0.74}, {"measurement": "log2FC", "setting": "[21]", "result": -2.01}, {"measurement": "log2FC", "setting": "[22]", "result": 0.937}, {"measurement": "log2FC", "setting": "[23]", "result": -0.701}, {"measurement": "log2FC", "setting": "[24]", "result": -1.11}, {"measurement": "log2FC", "setting": "[25]", "result": -0.871}, {"measurement": "log2FC", "setting": "[26]", "result": -0.867}, {"measurement": "log2FC", "setting": "[27]", "result": 1.35}, {"measurement": "log2FC", "setting": "[28]", "result": -0.813}, {"measurement": "log2FC", "setting": "[29]", "result": -1.04}, {"measurement": "log2FC", "setting": "[30]", "result": 1.15}, {"measurement": "log2FC", "setting": "[31]", "result": -1.43}, {"measurement": "log2FC", "setting": "[32]", "result": 1.97}]}]}
